The assay is described as follows: qHTS Assay for Lipid Storage Modulators in Drosophila S3 Cells.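 As to cell number change: cells counted by Cell Tracker Red CMTPX staining in the red channel.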 The settings on record: BODIPY lipid droplet fluorescence, 18-24 h; for cell number change: measured here: cell count max response, cells fed with added oleic acid. In a few lines: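 Drosophila S3 cells loaded with oleic acid (400 uM, as added) and compounds at several concentrations; lipid droplets imaged by 488-nm laser-scanning cytometry, 500–530 nm intensity and object ratio to cell channel. Percent activity normalized to 20 uM Triacsin C.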
(In qHTS, concentration-response curves come from the screen itself.)

[1] abbreviates: measured here: lipid fluorescence (Fed channel) AC50, cells fed with added oleic acid.
[2] abbreviates: measured here: cell number channel AC50, cells fed with added oleic acid.

This is one part of the list. Shown are side measurements of this screen, not its main read-out; they come without a call. Most of these compounds were active or inconclusive in the main read-out, so they are no random draw. Potencies come from curve fits of mixed quality, noted in brackets.

As usually defined, the AC50 is the concentration giving half of the maximal activity seen. Take `COc1cc(/C=N/n2cnnc2)ccc1OC(=O)c1ccco1`: the cell number change is -26.9%. The AC50 under setting [1] was 32.6 µM [falling, partial curve].
With `COc1ccc(Nc2nc3ccccc3s2)cc1`, the cell number change is -17.1%. Moreover, under setting [1], the AC50 was 0.116 µM [falling, full curve, poor fit].
Regarding `CC(c1ccco1)N(C(=O)c1ccccc1F)c1ccccn1` (stereo not given), the cell number change is -105%. Also, under setting [2], the concentration at half-maximal activity (AC50) is 29.1 µM [falling, single point]. Moreover, the concentration at half-maximal activity (AC50) under setting [1] was 32.6 µM [falling, partial curve, poor fit].
As to `CC1CCC(NC(=O)c2cccc(S(=O)(=O)N3CCN(c4ccccc4)CC3)c2)CC1` (stereo not given), the cell number change was -10.4%. Besides, under setting [2], the AC50 is 2.59 µM [rising, single point].
For `COc1ccc(OCCC(=O)OCC(=O)NCc2ccc(F)cc2)cc1`, the cell number change was -53.4%. Under setting [2], the AC50 was 23.1 µM [falling, single point]. Besides, under setting [1], the AC50 is 0.366 µM [falling, partial curve].
For the compound `Cc1ccc(C(=O)NCC(c2ccco2)N2CCc3ccccc32)cc1` (stereo not given), the cell number change amounted to 16.2%. For the same compound, under setting [1], the concentration at half-maximal activity (AC50) was 2.91 µM [rising, single point].
As to `CN1CCc2nc(NC(=O)c3cccc(OC(F)F)c3)sc2C1`, the cell number change turned out to be 13.9%. For the same compound, under setting [1], the AC50 was 16.4 µM [falling, partial curve].
Turning to `C=CCNC(=S)Nc1sc2c(c1C(=O)OCC)CC(C)(CC)OC2` (stereo not given), the cell number change is -14%. Also, the AC50 under setting [1] is 1.64 µM [falling, partial curve].
`CCn1cc(C(=O)NC(C)C2CC3CCC2C3)cn1` (stereo not given): the cell number change was -15.8%. Besides, the half-maximal activity concentration (AC50) under setting [1] was 6.51 µM [rising, partial curve].
Turning to `O=C1C2C3C=CC(C3)C2C(=O)N1c1cccc(N2C(=O)C3C4C=CC(C4)C3C2=O)n1` (stereo not given), the cell number change is -231%. Besides, the AC50 under setting [2] is 29.1 µM [falling, partial curve]. Under setting [1], the AC50 is 18.4 µM [falling, partial curve].
On to `O=C(Cc1ccc(F)cc1)N1CCC(CC2CC(c3cccc(Br)c3)=NO2)(C(=O)NCC2CCCCC2)CC1` (stereo not given), for which the cell number change was determined as 31.1%. Also, the AC50 under setting [2] was 5.8 µM [rising, full curve, poor fit]. Moreover, the AC50 under setting [1] is 29.1 µM [falling, single point].
Take `CC(C)CC(COCc1cccc(C(F)(F)F)c1)N1CCN(C(=O)c2cccc(C(F)(F)F)c2)CCC1=O` (stereo not given): the cell number change turned out to be 1.83%. The AC50 under setting [1] was 16.4 µM [falling, single point].
Take `CC(NC(=O)C(=O)N/N=C/c1ccccc1)c1ccccc1` (stereo not given): the cell number change is -26.7%. Under setting [1], the AC50 was 20.6 µM [falling, partial curve].
Consider `CC(C)Nc1nc(-c2ccccc2)nc(-n2ccnc2)n1`, for which the cell number change is -46.6%. Further, under setting [2], the AC50 was 29.1 µM [falling, single point].
Turning to `Cc1nc2ccccc2c2oc(C(=O)N3CCCC(C)C3)cc12` (stereo not given), the cell number change is -18.2%.
On the same count and under the same terms, to `Cc1cc(C)nc(NS(=O)(=O)c2ccc(NC(=O)CCCN3C(=O)c4ccccc4C3=O)cc2)n1` belongs -12.2%.
Still for that read-out and setting: the value for `CCCSC1=N/C(=C\c2ccc3c(c2)OCO3)C(=O)S1` was 18.7%.
Same read-out and setting: to `Cc1ccc(CNC(=O)C2(S(=O)(=O)c3ccccc3)CC=CC2)cc1` belongs 11.7%.
With `Cc1ccccc1Cn1nc(C)c(NC(=O)C2(C)CC2(Cl)Cl)c1C` (stereo not given), the cell number change is -35%. Besides, under setting [2], the AC50 is 25.9 µM [falling, partial curve, poor fit]. Further, the AC50 under setting [1] is 20.6 µM [falling, partial curve, poor fit].
With `Cc1cccc(N=C2NC(=O)/C(=C\c3cccs3)S2)c1`, the cell number change stood at 21.4%. Under setting [1], the AC50 is 14.6 µM [rising, single point].
`COc1ccccc1/C=C1\N=C(C(C)(C)C)OC1=O`: the cell number change stood at 20.3%.
Take `Cc1cc(Cl)ccc1NC(=O)C1CCCN1C(=O)c1cccs1` (stereo not given): the cell number change is -17.2%. Under setting [1], the AC50 is 0.517 µM [falling, partial curve, poor fit].
For the compound `O=C(Nc1cnn(Cc2ccc(Cl)cc2)c1)c1ccc([N+](=O)[O-])cc1`, the cell number change turned out to be 2.28%.
In the case of `COc1ccc(NC(=S)NCCCCCC(=O)C[N+](=O)[O-])cc1`, the cell number change was -37.1%. Further, the AC50 under setting [2] was 13 µM [falling, partial curve]. For the same compound, the AC50 under setting [1] is 0.731 µM [falling, full curve].
With `Cc1cc(C)n2nc(C(=O)NCc3cccc(C(F)(F)F)c3)nc2n1`, the cell number change was found to be 32.7%. Also, the AC50 under setting [2] was 29.1 µM [rising, single point]. Moreover, under setting [1], the AC50 was 29.1 µM [rising, single point].
`Cc1ccc(NC(=O)CSc2nnc(C3CC3)n2C)cc1S(=O)(=O)N1CCCCC1`: the cell number change is -4.15%. Moreover, the half-maximal activity concentration (AC50) under setting [1] is 6.51 µM [falling, single point].
`COc1ccc(NC(=O)Cc2nnc(SCC(=O)NC3CCCC3)n2C)cc1`: the cell number change was -7.89%.
For `CC(=O)N1c2ccc(S(=O)(=O)N3CCC(C(=O)N4CCN(c5ccccc5F)CC4)CC3)cc2CC1C` (stereo not given), the cell number change was -16.5%. In addition, under setting [2], the AC50 is 1.3 µM [rising, full curve, poor fit].
Consider `CCC(=O)Nc1cccc(-c2cn3ccsc3n2)c1`, for which the cell number change was determined as 49.6%. Further, under setting [1], the AC50 is 14.6 µM [rising, partial curve].
As for `COc1cc(NC(=O)c2ccccc2)c(OC)cc1NC(=O)Cc1ccc(Br)cc1`, the cell number change amounted to 110%. Further, the AC50 under setting [2] is 20.6 µM [rising, partial curve]. Further, under setting [1], the AC50 was 29.1 µM [falling, single point].
With `O=C(COC(=O)CN1C(=O)NC2(CCCC2)C1=O)Nc1ccccc1C(F)(F)F`, the cell number change is -12%. Besides, the AC50 under setting [2] was 0.517 µM [falling, single point].
Consider `CN(C)S(=O)(=O)n1cnc([C@@H]2[C@@H]3C(=O)OC[C@@H]3C[C@]23N=CN(Cc2ccccc2)C3=O)c1`, for which the cell number change worked out at 10.7%. In addition, under setting [1], the concentration at half-maximal activity (AC50) is 0.517 µM [rising, full curve, poor fit].
On to `CCn1c(C)nc2cc(C(=O)NNS(=O)(=O)c3ccc(C)cc3C)ccc21`, for which the cell number change stood at 21.6%. The half-maximal activity concentration (AC50) under setting [1] was 6.51 µM [rising, partial curve].
For the compound `O=C(COC(=O)CCc1nc2ccccc2s1)Nc1ncc(Cl)cc1Cl`, the cell number change came out at 13.3%. Further, the AC50 under setting [1] is 14.6 µM [rising, single point].
On to `O=C(NCCN1CCCC1)C1COc2ccccc2O1` (stereo not given), for which the cell number change was -25.3%. Besides, the concentration at half-maximal activity (AC50) under setting [2] was 0.0651 µM [falling, full curve, poor fit].
With `N=c1c2c(-c3ccccc3)c(-c3ccccc3)n(Cc3ccccc3)c2ncn1CCCO`, the cell number change was -28.7%.
Take `Cc1nc2nc[nH]n2c(=O)c1NC(=O)CCc1ccccc1`: the cell number change was -42.3%. Moreover, the AC50 under setting [2] is 20.6 µM [falling, partial curve, poor fit]. Further, the AC50 under setting [1] is 0.0517 µM [falling, full curve, poor fit].
On to `COc1ccc(C(CCNCc2ccccc2F)c2ccc(F)cc2)cc1` (stereo not given), for which the cell number change was -32%. The AC50 under setting [2] was 18.4 µM [falling, partial curve]. Further, the AC50 under setting [1] is 7.31 µM [falling, partial curve, poor fit].
`CN(c1ccccc1)S(=O)(=O)c1ccc(Cl)nc1`: the cell number change is -12.4%. The AC50 under setting [2] is 0.731 µM [falling, full curve, poor fit]. Moreover, the AC50 under setting [1] is 0.206 µM [falling, full curve, poor fit].
`O=C(CCC(=O)c1cccs1)Nc1ncccc1O`: the cell number change turned out to be 25%. In addition, under setting [2], the AC50 was 2.06 µM [falling, partial curve, poor fit].
For the compound `Cc1csc2nnc(N)n12`, the cell number change is -0.14%. Also, the AC50 under setting [1] was 0.146 µM [falling, full curve, poor fit].
As to `O=C(CN1CCc2ccccc21)Nc1ccc2c(c1)OCO2`, the cell number change came to 7.69%. Under setting [1], the half-maximal activity concentration (AC50) was 1.84 µM [rising, partial curve].
In the case of `Cc1cccc(NC(=O)CS(=O)CC(=O)Nc2cnc3ccccc3c2)c1C` (stereo not given), the cell number change came out at 13.3%. Besides, the AC50 under setting [1] is 1.16 µM [rising, full curve].
Turning to `Cc1ccnc2nc(C(=O)OCC(=O)c3c[nH]c4ccccc34)nn12`, the cell number change came out at 37.8%. In addition, the AC50 under setting [2] was 32.6 µM [rising, partial curve, poor fit].
In the case of `CCSc1nc2cc(OC)c(OC)cc2c(=O)n1CCc1ccccc1`, the cell number change came to 100%. Also, the concentration at half-maximal activity (AC50) under setting [2] was 1.84 µM [rising, full curve]. The concentration at half-maximal activity (AC50) under setting [1] was 3.26 µM [rising, partial curve].
Take `Nc1cccc(/C=C/c2ccncc2)c1`: the cell number change turned out to be 5.71%. For the same compound, the AC50 under setting [1] is 0.092 µM [rising, full curve, poor fit].
For `Cn1c(=O)[nH]c(=O)c2c1nc(CN1CCN(c3cccc(Cl)c3)CC1)n2Cc1ccccc1Cl`, the AC50 under setting [1] is 3.26 µM [rising, partial curve].
As for `Cn1nc(C(=O)NNC(=O)c2ccc(Cl)c(S(N)(=O)=O)c2)c2ccccc2c1=O`, the cell number change was -17.3%. Besides, the AC50 under setting [1] is 4.61 µM [rising, full curve, poor fit].
With `CC(C)CCNC(=O)COc1ccc2c3c(c(=O)oc2c1)CCC3`, the cell number change is -9.98%. Further, under setting [1], the AC50 is 0.206 µM [rising, full curve, poor fit].
Regarding `O=C(O)COc1ccc(C(=O)Cc2ccc3c(c2)OCCCO3)c(O)c1`, the cell number change was -8.7%. Further, under setting [1], the AC50 was 18.4 µM [rising, single point].
Consider `O=C(Nc1ncc([N+](=O)[O-])s1)c1ccc2c(c1)OCO2`, for which the cell number change is 6.52%.
As for `Cc1nc(SCc2cccc(Oc3ccccc3)c2)n[nH]1`, the cell number change is -3.32%. In addition, under setting [1], the AC50 is 4.61 µM [falling, single point].
For the compound `O=C(NC1CCCc2c1cnn2-c1cc(F)cc(F)c1)c1ccncc1` (stereo not given), the cell number change was -31.4%. Besides, the half-maximal activity concentration (AC50) under setting [1] is 23.1 µM [falling, single point].
Consider `CCn1cnc2c(NCCc3cccnc3)nc(C#N)nc21`, for which the cell number change is -16.3%. Further, the AC50 under setting [1] is 0.58 µM [rising, partial curve].
Consider `COc1ccc(C(CC(=O)O)N2Cc3ccccc3C2=O)cc1` (stereo not given), for which the cell number change was found to be 10.6%. For the same compound, the AC50 under setting [1] is 6.51 µM [falling, single point].
Turning to `CCOc1ccccc1NC(=S)N1CCCCCC1`, the cell number change amounted to 19.3%. For the same compound, the AC50 under setting [1] is 29.1 µM [rising, single point].
On to `O=C(CSc1ccccn1)Nc1ccc2c(c1)CCC2`, for which the cell number change worked out at 39.5%. The AC50 under setting [2] is 29.1 µM [rising, single point].
For `O=C(c1cccc(S(=O)(=O)Nc2ccccc2Cl)c1)N1CCN(c2ccccc2O)CC1`, the cell number change is -16.1%. Besides, under setting [1], the AC50 is 0.058 µM [falling, full curve, poor fit].
Regarding `CN(C1CCCCC1)S(=O)(=O)c1cn(C)c(=O)n(C)c1=O`, the cell number change worked out at 0.389%. The AC50 under setting [1] is 0.092 µM [falling, full curve, poor fit].

The record behind these values is PubChem BioAssay AID2685 (National Center for Advancing Translational Sciences (NCATS), 2010).
